Measured values as given in the supplement of paper PMC12873370.
“And” between values parts separate entries of the source, which are not always exact repeats. Equal entries are not always repeated. The list shows a part of the results. Repeats are few or missing, and single values can be far off.

What was measured:
[1] = tested on: MEPP (mouse ovarian epithelium Trp53/Pten KO); assay: cell viability relative to untreated (fraction); higher = less growth inhibition; details: 5 µM; 3 days
[2] = tested on: PREPP (mouse prostate epithelium Trp53/Pten KO); assay: as above; details: 5 µM; 3 days

SMILES | cell viability [1] | cell viability [2]
Fc1cc(-c2cccc3ncc(-c4cnn(C5CCNCC5)c4)nc23)cc(F)c1CN1CCOCC1 | 0.863 and 0.733 | 0.791 and 0.718
CCOC(=O)CCNc1cc(N2CCc3ccccc3CC2)nc(-c2ccccn2)n1 | 0.752 | 0.72
O=C(O)C(Cc1c[nH]c2ccccc12)N1C(=O)c2ccccc2C1=O (stereo not drawn) | 1.07 | 0.972
CCN(CC)CCNC(=O)c1ccc(N)cc1 | 0.966 | 0.821
O=C(Nc1ccccc1-c1cn2c(CN3CCNCC3)csc2n1)c1cnc2ccccc2n1 | 0.211 | 0.229
CC(C)OC(=O)CCC/C=C\C[C@@H]1[C@@H](CC[C@@H](O)CCc2ccccc2)[C@H](O)C[C@@H]1O | 0.993 | 0.94
CCOC(=O)c1ccc(NC(=O)O[C@H]2[C@H](OC(=O)Nc3ccc4c(c3)OCO4)[C@@H](OC(=O)Nc3ccc4c(c3)OCO4)[C@@H](OC)O[C@@H]2CO)cc1 | 0.897 | 0.936
O=S(=O)(O)c1ccc2cc(N=Nc3cc(S(=O)(=O)O)c4cccnc4c3O)ccc2c1 | 0.802 | 1
O=C(c1ccc(Cl)cc1Cl)n1nnc2ccccc21 | 1.08 | 0.871
CCC(=O)Nc1cccc(Oc2nc(Nc3ccc(N4CCN(C)CC4)cc3OC)ncc2Cl)c1 | 0.944 | 0.996
CC(C)(C)OC(=O)Nc1ccc(-c2cc(C(=O)NCCCCCCC(=O)NO)no2)cc1 | 0.432 | 0.667
COc1cc2c(cc1OCCCN1CCCC1)N=C(N)C21CCC1 | 1.05 | 0.894
Cc1ccc2nc(NCCN)c3ncc(C)n3c2c1 | 0.799 | 0.753
O=C([C@@H](Cc1cccc(C(F)(F)F)c1)NS(=O)(=O)c1cc(F)c2c(c1)CCNC2)N1CCCC1 | 1.07 and 0.87 | 1 and 0.798
O=C(O)c1ccnc(C(=O)O)c1 | 0.876 | 1.05
Cc1cc(C)c(CNC(=O)c2cc(-c3ccc(CN4CCOCC4)cc3)cc3c2cnn3C2CCCC2)c(=O)[nH]1 | 0.664 | 0.819
CN(C)CC(=O)Nc1ccc2[nH]c(=O)c3ccccc3c2c1 | 0.792 | 0.856
CC(NC(=O)c1ccccc1/N=C/c1c(O)ccc2ccccc12)c1ccccc1 (stereo not drawn) | 0.825 | 0.834
CC(C)c1cc(CNc2nc(Nc3cc(C4CC4)[nH]n3)cc(N3CCN(C)CC3)n2)on1 | 0.299 | 0.583
COc1ccc(Cn2ccc3ccc(C(=O)NO)cc32)cc1 | 0.968 | 0.725

A few values from the entries so far.
cell viability [1], CCOC(=O)c1ccc(NC(=O)O[C@H]2[C@H](OC(=O)Nc3ccc4c(c3)OCO4)[C@@H](OC(=O)Nc3ccc4c(c3)OCO4)[C@@H](OC)O[C@@H]2CO)cc1 reads 0.897
cell viability [1], CCN(CC)CCNC(=O)c1ccc(N)cc1 reads 0.966

Later entries

SMILES | cell viability [1] | cell viability [2]
NC(=O)c1cccc2[nH]c(-c3ccc(C4CCCN4)cc3F)nc12 (stereo not drawn) | 0.802 | 0.801
N[C@H]1C[C@@H]1c1ccc(-c2cccc(O)c2)cc1 | 1.11 | 0.907
CCCOc1ccc(CCc2nc3cc(-c4c(C)noc4C)ccc3n2CCN2CCOCC2)cc1 | 0.772 | 0.677
O=C(COc1cccc2c(=O)[nH]ccc12)c1ccccc1 | 0.803 | 0.802
N[C@H]1CC[C@H](N[C@@H]2C[C@H]2c2ccccc2)CC1 | 0.885 | 0.891
O=C(Nc1cccc(Cl)c1)Nc1ncc(CCNc2ncnc3ccsc23)s1 | 0.798 | 0.554
CC(=O)Nc1ccc(C(=O)Nc2ccccc2N)cc1 | 0.975 | 0.851
O=C(O)C1(C(=O)O)CCC1.[NH2-].[NH2-].[Pt+2] | 1.1 | 0.893
CCS(=O)(=O)Nc1ccc2c(c1)/C(=C(/Nc1ccc(CN3CCCCC3)cc1)c1ccccc1)C(=O)N2 | 0.382 | 0.587
COc1ccccc1S(=O)(=O)Nc1ccc2c(c1)CN(C)C(=O)N2 | 0.765 | 0.688
O=C(/C=C/c1cccc(S(=O)(=O)Nc2ccccc2)c1)NO | 0.488 | 0.79
COc1cc(Nc2ncc3c(n2)-c2ccc(Cl)cc2C(c2c(F)cccc2OC)=NC3)ccc1C(=O)O | 0.558 | 0.586
COC(=O)c1ccc(N2CCN(C)CC2)c(NC(=O)c2cccc(OC)c2)c1 | 1.01 | 0.868
O=C(c1cccc(Cl)c1F)N1CCN(Cc2cccc(Nc3nccs3)n2)CC1 | 0.525 | 0.829
CN(C)c1ccc(-c2nc3ncc(Cl)c(N4CCN(CC(=O)Nc5nccs5)CC4)c3[nH]2)cc1 | 0.989 | 0.904
Cc1cc(Nc2cc(N3CCN(C)CC3)nc(/C=C/c3ccccc3)n2)n[nH]1 | 0.634 and 0.651 | 0.642 and 0.573
CN1CCN(c2nc(C3=C(c4c[nH]c5ccccc45)C(=O)NC3=O)c3ccccc3n2)CC1 | 0.963 | 0.686
NC(=O)c1ccccn1 | 1.01 | 1.11
NC(=O)c1cccc2cn(-c3ccc([C@@H]4CCCNC4)cc3)nc12 | 0.9 | 0.835
